These are yes or no findings as the source states them, for the method shown. In cells and extracts the contact can be indirect. Here binding means that the protein was enriched with, or labelled near, the bait; the list need not be complete.
Target: HA-TurboID-KRAS G12V (human) (UniProt P01116)
Assay: proximity labelling; HA-TurboID-KRAS (WT, G12C, G12D, G12V) stably expressed in HEK293T; 50 μM biotin for 2 h (tag-only control 0.5 h); biotinylated proteins captured on NeutrAvidin agarose (14 h, 4 °C), SDS-PAGE, in-gel trypsin digestion, LC-MS/MS; hits: peptide count ≥ 2 and found only in the KRAS group or fold change ≥ 2 against HA-TurboID tag-only; mutants against WT: FC ≥ 2 increased, FC ≤ 0.5 decreased

Protein sequences, listed by entry. Tags and fused reporters are not part of them.
UniProt Q12923: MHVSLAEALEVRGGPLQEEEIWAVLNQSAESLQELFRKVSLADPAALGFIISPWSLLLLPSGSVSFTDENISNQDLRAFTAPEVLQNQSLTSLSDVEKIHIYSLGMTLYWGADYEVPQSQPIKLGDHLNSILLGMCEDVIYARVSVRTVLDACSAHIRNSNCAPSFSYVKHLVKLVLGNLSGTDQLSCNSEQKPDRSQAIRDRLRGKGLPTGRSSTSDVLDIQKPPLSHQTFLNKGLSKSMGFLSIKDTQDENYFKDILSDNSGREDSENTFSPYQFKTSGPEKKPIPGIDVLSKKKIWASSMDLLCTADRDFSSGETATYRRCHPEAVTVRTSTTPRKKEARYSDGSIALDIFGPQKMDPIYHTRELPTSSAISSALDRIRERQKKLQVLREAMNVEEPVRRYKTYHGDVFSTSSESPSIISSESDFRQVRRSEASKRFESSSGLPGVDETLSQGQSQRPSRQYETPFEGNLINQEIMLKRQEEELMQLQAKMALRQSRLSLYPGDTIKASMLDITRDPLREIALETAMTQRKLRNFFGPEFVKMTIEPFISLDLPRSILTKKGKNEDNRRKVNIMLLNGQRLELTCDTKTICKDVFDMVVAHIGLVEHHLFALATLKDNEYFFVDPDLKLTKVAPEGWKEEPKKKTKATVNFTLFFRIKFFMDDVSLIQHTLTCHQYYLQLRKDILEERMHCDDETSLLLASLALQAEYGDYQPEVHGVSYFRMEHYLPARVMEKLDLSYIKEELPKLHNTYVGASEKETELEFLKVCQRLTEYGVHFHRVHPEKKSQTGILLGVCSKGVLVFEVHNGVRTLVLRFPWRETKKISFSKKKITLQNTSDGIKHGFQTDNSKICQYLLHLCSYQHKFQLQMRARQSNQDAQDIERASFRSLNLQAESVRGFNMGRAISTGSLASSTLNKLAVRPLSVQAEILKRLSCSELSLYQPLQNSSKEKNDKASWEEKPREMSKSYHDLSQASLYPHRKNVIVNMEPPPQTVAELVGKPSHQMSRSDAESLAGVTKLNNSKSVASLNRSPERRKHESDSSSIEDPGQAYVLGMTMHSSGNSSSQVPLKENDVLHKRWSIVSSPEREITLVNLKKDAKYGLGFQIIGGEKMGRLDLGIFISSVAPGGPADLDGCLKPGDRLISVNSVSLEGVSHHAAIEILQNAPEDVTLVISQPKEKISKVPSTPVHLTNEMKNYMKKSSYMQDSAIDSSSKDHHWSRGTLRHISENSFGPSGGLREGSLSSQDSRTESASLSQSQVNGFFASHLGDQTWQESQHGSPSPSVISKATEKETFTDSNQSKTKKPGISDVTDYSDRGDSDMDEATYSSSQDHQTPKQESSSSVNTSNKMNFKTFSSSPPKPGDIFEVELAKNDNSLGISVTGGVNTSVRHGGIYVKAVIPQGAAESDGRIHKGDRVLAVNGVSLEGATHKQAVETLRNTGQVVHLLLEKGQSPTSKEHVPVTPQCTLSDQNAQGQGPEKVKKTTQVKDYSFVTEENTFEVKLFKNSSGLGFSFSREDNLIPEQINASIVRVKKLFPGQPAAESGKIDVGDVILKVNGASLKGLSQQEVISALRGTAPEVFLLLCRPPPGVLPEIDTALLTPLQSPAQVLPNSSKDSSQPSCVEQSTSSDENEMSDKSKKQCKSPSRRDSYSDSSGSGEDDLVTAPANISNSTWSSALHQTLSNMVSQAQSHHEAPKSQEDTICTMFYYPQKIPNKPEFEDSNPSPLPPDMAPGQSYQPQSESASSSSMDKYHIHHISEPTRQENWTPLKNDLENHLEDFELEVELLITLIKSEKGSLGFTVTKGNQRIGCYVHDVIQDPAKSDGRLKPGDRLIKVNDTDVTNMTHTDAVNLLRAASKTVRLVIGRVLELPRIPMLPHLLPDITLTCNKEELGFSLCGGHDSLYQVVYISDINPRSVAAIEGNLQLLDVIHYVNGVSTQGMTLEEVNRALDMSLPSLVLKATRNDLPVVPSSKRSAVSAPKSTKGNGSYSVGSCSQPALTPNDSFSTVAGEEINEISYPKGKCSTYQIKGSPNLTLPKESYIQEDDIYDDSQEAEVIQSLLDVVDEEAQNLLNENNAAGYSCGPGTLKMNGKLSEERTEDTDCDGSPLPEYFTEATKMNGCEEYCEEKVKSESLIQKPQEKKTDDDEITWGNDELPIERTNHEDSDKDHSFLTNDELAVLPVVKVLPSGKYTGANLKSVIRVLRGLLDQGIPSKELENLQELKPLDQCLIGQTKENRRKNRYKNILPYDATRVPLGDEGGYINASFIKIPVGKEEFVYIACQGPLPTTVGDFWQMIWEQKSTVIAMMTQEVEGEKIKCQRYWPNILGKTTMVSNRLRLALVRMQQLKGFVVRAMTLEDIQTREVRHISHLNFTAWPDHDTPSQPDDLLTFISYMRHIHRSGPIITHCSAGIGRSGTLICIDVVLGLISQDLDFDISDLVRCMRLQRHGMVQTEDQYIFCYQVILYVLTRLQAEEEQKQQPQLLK

binding: binds
Substance: PTPN13 (from UniProt Q12923 1-2485)

From paper PMC12109396
